This test addresses human MUC1 peptide … (human). As to the kind of experiment: PEPperMAP linear peptide microarray, antibody at 1 ug/ml.

These are yes or no findings as the source states them, for the method shown. Some binding calls cover weakened binding; strength is not graded here.

B1: anti-MUC1 antibody HT186-D11 (antibody, V domains shown)
VH: QMQLVQSEAELKKPGASVKVSCKASGYSFTGHYMHWVRQAPGQGLEWMGWIDPVTGGTKYAQNFQGWVTMTRDTSIRTAYLELSRLRSDDTAMYYCAREVTGDRGQFDKWGQGTLVTVAS
VL: QSVLTQPPSVSVAPGKTARITCGGNNIGSKSVHWYQQKPGQAPALVIYYGSNRPSGIPERFSGSNSGNTATLTISRVEAGDEADYYCQVWDSSSDWVFGGGTKLTVL
As for B1, the binding result is “binds”.

B2: 1993-H02 with an HT186-D11 light chain (anti-MUC1 antibody H02) (antibody, V domains shown)
VH: QMQLVQSEAELKKPGASVKVSCKASGYSFTSHFMHWVRQAPGQGLEWMGWIDPVTGGTKYAQNFQGWVTMTRDTSIRTAYLELSRLRSDDTAMYYCAREARADRGQFDKWGQGTLVTVAS
VL: QSVLTQPPSVSVAPGKTARITCGGNNIGSKSVHWYQQKPGQAPALVIYYGSNRPSGIPERFSGSNSGNTATLTISRVEAGDEADYYCQVWDSSSDWVFGGGTKLTVL
B2: the binding result is recorded as “binds”.
